Source: ChEMBL document CHEMBL3988442, “University of Dundee, Small-Polar-MMV Screening Library” (2021).

Sequences of proteins named here, by UniProt entry; tags and fusion partners are left off.
UniProt E9BF75, entry or part of it: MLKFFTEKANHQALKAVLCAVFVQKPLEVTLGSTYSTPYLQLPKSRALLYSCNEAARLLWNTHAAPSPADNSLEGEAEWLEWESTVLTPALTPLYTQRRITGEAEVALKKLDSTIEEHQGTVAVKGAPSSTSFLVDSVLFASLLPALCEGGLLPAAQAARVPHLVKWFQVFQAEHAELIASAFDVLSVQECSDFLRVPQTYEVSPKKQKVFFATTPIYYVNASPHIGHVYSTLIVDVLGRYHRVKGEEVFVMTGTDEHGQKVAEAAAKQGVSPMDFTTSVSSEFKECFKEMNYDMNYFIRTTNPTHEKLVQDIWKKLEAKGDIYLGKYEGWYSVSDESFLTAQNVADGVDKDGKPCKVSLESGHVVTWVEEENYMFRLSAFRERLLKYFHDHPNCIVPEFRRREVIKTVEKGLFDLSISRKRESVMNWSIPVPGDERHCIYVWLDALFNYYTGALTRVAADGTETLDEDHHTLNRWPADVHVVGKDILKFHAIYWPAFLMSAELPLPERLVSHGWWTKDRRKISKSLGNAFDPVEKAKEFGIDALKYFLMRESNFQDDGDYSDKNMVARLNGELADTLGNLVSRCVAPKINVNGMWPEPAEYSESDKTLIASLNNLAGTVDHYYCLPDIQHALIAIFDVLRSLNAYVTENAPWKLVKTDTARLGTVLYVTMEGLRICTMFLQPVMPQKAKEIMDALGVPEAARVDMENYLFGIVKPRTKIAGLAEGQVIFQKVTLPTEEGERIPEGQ

All values are in %. The record does not define 0% and 100%; most values in the screen are far below 50% and negative numbers occur (in some assays of this library far below -100). This is an unselected part of the compounds tested.

A: 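Methionyl-tRNA synthetase (putative), Leishmania donovani (UniProt E9BF75). Primary screen of methionyl-tRNA synthetase; the read-out is not stated. The test concentration is not given. Values are per cent inhibition. Of about 68,000 compounds tested this way, about 24 (0.035%) reached 50% or more in at least one test.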
B: 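Assay on Mycobacterium tuberculosis, filed only as a heat shock assay from Cornell; the read-out is not stated. The concentration is filed as 10 mM, unlikely as a test dose, so the dose is not known. The record gives no direction; compounds that gave an IC50 in retests scored well above the rest, so higher reads as stronger inhibition. Size under these conditions: about 69,000 compounds, about 930 of them at 50% or above in at least one test.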

Compound: O=S(=O)(c1ccccc1)N1C[C@@H]2COC[C@]2(COCC2CC2)C1
A: 2.422%

Compound: Cc1ccccc1CN1CCC(CNC(=O)Cn2cncn2)CC1
A: 3.093%
B: 3.643%

Compound: CNC(=O)CCCNCc1c(C(C)C)nn(C)c1N(C)C
A: 5.512%
B: 7.844%

Compound: CN1CC(=O)N(c2ccccc2)CC12CCN(Cc1nccn1C)C2.O=C(O)C(F)(F)F.O=C(O)C(F)(F)F (centres unmarked)
B: -3.367%

Compound: Cc1noc(C(C)C)c1C(=O)NCc1cccnc1
A: 15.67%
B: -3.885%

Compound: COc1cccc(C(=O)NS(=O)(=O)c2cccc(C#N)c2)c1OC
A: 7.937%
B: 12.69%

Compound: c1cncc(N2CCCC3(CCN(CC4CCCO4)CC3)C2)c1 (centres unmarked)
A: 6.301%

Compound: CCc1nnc(NC(=O)N(CCOC)Cc2ccc(C)o2)s1
A: 5.389%
B: 22.62%

Compound: CCOc1ncccc1NC(=O)NCC(C)O (centres unmarked)
A: 23.38%
B: -2.361%

Compound: Cc1nc[nH]c1C(=O)N1CCCC2(C1)C(=O)N(C)c1ccccc12 (centres unmarked)
A: 14.73%
B: 8.912%

Compound: CCc1nnc2n1CCN(Cc1csc(-c3ccc(C)o3)n1)C2
A: 11.66%
B: 49.84%

Compound: [H][C@@]12CCN(S(=O)(=O)c3ccccc3F)C[C@]1(C(=O)NC)CCO2
B: 5.55%

Compound: CCc1nc2n(n1)CCCC2Nc1nc(C2CC2)ns1 (centres unmarked)
A: 13.49%
B: -2.114%

Compound: Fc1ccc(CN2CCC3(CCCN(c4nncs4)C3)C2)cc1 (centres unmarked)
A: -1.031%

Compound: CN(C)CCN1C(=O)CCCC12CCCN(C(=O)c1cc[nH]n1)C2 (centres unmarked)
A: 0.5495%

Compound: CN1CCCC1CNC(=O)CCCOCc1ccccc1 (centres unmarked)
A: 15.31%
B: 5.046%

Compound: O=C(O)C(F)(F)F.[H][C@]12CCC[C@@]1(COc1cccnc1)CN(S(=O)(=O)N(C)C)C2
B: -19.35%

Compound: Nc1nc(N)c2c(n1)OC1(COCCN(Cc3nccs3)C1)C2 (centres unmarked)
A: 13.35%
B: 3.839%

Compound: Cc1cc(-c2cnn(CCNC(=O)c3cccnc3)c2C2CC2)on1.Cl
B: -18.37%

Compound: CN(C)C(=O)c1ccc2c(c1)N(C)C(CC(=O)NCCOCCO)CO2 (centres unmarked)
A: 8.614%
B: -25.07%

Compound: Cc1ccc(NC2COC3(CCN(Cc4ccn(C)n4)CC3)C2)nn1.O=C(O)C(F)(F)F (centres unmarked)
B: -11.18%

Compound: CCCOc1cc(C)c2c(c1C)C[C@H]([C@H](C)C(=O)O)CC2
A: 2.256%

Compound: O=C(NCC(=O)N1CCN(c2ccccc2)CC1)c1sccc1C1CC1
A: 13.28%
B: -6.5%

Compound: COc1c(C2CCCN2c2ncnc3ccsc23)c(C)nn1C (centres unmarked)
A: 13.97%
B: -19.75%

Compound: O=S(=O)(CCN1CCOC(Cn2cccn2)C1)C(F)(F)F (centres unmarked)
A: 11.81%
B: 103.2%

Compound: Cc1ccc(NC(=O)c2cc3c(=O)n(C)c(=O)n(C)c3nc2C)cc1Cl
A: -4.604%
B: 9.39%

Compound: CN(C)c1ncc(-c2c(-c3ccccc3)ncn2C(CO)C(=O)O)cn1 (centres unmarked)
A: -0.274%
B: 0.4965%

Compound: CCC(C)(C)NC(=O)Cn1nc(C)nc1-c1ccccc1
A: 21.17%
B: 13.91%

Compound: Cc1cc(CN2C[C@@H]3COC[C@]3(c3nnc(C)o3)C2)no1
A: 6.522%

Compound: Cc1occc1C(=O)N1CCCC2(CCN(CCN3CCCC3)C2=O)C1.O=C(O)C(F)(F)F (centres unmarked)
B: 3.09%

Compound: O=C(COc1cccc(F)c1)N1C[C@@H](O)[C@H](N2CCOCC2)C1
A: 12.47%
B: -17.48%

Compound: O=C(NCC1CCCN1CCc1ccccc1)NCC1(O)CCC1 (centres unmarked)
A: 13.61%
B: -6.802%

Compound: O=C(COCC(F)(F)C(F)F)N1CCC2(CCCN(CC3CC3)C2=O)C1 (centres unmarked)
A: 11.62%
B: 20.46%

Compound: Cc1ccc(-c2nnc(CN3CCN(c4ccccn4)CC3)o2)cc1
A: 7.5%
B: 35.41%

4 of the entries, repeated:

* CCCOc1cc(C)c2c(c1C)C[C@H]([C@H](C)C(=O)O)CC2 | A: 2.256%
* O=C(O)C(F)(F)F.[H][C@]12CCC[C@@]1(COc1cccnc1)CN(S(=O)(=O)N(C)C)C2 | B: -19.35%
* Cc1ccccc1CN1CCC(CNC(=O)Cn2cncn2)CC1 | A: 3.093%; B: 3.643%
* Cc1ccc(NC(=O)c2cc3c(=O)n(C)c(=O)n(C)c3nc2C)cc1Cl | A: -4.604%; B: 9.39%